Measurements reported in article PMC5746398.
Results are given in words; binding and its absence hold for the method and conditions named. In cells and extracts the contact can be indirect. Some binding calls cover weakened binding; strength is not graded here.

Protein sequences, listed by entry. Tags and fused reporters are not part of them.
UniProt Q9H4L5: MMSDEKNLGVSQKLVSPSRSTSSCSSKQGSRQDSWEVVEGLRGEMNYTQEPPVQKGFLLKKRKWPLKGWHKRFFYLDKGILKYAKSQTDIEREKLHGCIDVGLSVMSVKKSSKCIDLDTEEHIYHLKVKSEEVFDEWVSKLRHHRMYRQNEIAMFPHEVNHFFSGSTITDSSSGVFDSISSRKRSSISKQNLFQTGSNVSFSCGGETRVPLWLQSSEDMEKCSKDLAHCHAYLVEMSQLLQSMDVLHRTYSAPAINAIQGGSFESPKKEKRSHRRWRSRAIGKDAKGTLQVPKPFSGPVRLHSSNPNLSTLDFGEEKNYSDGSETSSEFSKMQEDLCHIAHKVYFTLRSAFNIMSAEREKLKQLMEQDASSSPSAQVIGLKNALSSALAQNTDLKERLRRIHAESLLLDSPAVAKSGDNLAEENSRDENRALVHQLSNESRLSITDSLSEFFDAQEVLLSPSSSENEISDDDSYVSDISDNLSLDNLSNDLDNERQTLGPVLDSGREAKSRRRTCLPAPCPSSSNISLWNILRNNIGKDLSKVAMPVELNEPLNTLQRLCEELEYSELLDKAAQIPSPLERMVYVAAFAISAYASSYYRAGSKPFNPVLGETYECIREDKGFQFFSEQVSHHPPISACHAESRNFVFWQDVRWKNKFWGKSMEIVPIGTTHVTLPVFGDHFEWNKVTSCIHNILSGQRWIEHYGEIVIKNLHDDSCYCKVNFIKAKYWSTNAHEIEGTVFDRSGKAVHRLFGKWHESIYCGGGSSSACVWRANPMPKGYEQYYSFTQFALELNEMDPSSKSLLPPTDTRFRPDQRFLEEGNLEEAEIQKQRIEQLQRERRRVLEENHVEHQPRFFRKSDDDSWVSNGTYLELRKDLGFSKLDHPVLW
UniProt Q9ULT8: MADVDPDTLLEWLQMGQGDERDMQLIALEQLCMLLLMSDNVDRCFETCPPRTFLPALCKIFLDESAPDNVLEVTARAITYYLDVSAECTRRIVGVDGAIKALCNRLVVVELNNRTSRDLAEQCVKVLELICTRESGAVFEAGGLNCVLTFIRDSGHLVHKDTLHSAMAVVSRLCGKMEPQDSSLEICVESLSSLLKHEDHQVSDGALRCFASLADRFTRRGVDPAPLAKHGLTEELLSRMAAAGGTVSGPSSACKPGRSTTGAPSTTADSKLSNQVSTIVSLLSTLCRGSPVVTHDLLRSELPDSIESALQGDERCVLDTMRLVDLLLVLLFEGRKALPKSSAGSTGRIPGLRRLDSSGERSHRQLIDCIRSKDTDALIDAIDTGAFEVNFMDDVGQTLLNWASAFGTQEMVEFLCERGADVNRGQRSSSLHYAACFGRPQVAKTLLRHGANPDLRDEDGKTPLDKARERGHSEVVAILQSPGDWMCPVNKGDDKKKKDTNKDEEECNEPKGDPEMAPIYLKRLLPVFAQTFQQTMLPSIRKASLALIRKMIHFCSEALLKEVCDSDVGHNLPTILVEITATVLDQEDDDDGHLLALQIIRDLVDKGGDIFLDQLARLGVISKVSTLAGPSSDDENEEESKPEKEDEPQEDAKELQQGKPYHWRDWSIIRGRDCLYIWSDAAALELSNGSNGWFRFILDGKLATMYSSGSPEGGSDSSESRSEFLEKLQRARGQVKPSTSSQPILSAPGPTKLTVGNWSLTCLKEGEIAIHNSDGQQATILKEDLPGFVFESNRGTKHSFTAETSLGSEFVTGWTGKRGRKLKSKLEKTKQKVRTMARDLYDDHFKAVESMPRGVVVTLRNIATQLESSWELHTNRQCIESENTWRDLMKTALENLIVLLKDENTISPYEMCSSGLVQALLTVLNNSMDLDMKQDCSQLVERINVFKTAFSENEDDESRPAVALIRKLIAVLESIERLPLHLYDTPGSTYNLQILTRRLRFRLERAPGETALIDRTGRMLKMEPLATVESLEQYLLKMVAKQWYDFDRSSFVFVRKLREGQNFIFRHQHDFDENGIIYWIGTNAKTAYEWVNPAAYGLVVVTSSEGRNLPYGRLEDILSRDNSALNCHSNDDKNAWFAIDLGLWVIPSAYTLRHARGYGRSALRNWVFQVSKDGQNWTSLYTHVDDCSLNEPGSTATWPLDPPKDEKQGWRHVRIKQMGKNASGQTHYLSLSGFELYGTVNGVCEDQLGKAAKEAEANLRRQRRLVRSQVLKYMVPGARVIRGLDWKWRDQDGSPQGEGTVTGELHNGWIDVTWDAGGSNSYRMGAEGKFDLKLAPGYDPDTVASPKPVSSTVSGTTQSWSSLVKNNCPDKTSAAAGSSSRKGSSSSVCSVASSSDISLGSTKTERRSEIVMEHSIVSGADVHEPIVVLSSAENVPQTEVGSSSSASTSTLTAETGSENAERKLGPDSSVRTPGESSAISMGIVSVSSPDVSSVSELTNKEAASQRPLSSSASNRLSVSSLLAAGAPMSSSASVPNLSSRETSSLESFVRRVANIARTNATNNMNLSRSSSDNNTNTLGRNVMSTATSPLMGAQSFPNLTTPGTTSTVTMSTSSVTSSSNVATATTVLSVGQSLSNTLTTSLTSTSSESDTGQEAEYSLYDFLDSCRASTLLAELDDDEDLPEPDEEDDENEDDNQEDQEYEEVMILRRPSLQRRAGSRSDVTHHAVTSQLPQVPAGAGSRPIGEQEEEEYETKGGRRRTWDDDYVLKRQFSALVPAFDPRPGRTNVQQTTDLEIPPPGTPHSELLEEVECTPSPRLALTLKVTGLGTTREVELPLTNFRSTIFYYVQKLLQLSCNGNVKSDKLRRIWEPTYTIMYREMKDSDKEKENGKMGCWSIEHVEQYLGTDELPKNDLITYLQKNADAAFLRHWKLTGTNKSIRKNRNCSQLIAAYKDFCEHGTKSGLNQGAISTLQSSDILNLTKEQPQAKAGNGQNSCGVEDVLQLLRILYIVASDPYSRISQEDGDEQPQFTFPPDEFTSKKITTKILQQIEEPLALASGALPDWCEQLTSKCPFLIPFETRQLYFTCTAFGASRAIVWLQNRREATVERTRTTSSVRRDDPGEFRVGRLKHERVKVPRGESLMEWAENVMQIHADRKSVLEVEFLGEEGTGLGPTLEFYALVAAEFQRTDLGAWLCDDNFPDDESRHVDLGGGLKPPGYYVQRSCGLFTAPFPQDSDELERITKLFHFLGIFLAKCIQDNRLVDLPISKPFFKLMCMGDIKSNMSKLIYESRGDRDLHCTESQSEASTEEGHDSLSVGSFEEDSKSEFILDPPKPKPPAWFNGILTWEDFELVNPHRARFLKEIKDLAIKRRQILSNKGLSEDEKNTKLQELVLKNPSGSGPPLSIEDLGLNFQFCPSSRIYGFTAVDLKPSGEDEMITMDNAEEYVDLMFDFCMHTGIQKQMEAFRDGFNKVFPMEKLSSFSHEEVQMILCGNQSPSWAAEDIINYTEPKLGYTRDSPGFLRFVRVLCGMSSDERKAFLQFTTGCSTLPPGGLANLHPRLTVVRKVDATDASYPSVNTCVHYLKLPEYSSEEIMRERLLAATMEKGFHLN

T1: Ubiquitin Specific Peptidase 15 (USP15) (human (endogenous in LN-229, LN-428, LN-18)) (UniProt Q9Y4E8)
T1 sequence: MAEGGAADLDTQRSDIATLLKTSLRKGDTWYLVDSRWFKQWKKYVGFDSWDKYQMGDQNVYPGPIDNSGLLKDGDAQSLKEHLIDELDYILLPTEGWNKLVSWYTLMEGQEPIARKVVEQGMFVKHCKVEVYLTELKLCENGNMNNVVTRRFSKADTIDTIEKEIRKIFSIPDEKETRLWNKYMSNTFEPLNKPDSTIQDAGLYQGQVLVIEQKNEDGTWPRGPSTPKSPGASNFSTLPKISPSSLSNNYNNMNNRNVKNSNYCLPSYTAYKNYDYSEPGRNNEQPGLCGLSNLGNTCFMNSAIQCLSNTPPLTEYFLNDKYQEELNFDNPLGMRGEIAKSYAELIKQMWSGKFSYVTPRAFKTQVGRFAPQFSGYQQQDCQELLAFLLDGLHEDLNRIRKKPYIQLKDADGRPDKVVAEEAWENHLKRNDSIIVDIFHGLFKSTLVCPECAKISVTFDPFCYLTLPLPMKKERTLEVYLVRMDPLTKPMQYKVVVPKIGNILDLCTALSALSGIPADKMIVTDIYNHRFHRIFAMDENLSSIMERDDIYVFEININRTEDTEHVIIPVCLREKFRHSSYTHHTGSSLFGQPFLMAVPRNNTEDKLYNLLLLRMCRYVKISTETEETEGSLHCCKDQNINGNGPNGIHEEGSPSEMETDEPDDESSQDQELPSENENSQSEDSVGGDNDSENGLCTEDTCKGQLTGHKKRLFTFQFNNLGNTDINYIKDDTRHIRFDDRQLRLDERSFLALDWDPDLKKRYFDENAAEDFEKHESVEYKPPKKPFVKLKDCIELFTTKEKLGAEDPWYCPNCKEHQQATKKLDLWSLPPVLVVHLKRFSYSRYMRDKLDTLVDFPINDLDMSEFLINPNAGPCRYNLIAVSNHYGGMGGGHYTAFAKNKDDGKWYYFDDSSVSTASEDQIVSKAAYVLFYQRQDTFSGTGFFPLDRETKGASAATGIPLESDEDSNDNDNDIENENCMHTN

B1: Kinesin Family Member 15 (KIF15) (protein, UniProt Q9NS87 1-1388)
chain: MAPGCKTELRSVTNGQSNQPSNEGDAIKVFVRIRPPAERSGSADGEQNLCLSVLSSTSLRLHSNPEPKTFTFDHVADVDTTQESVFATVAKSIVESCMSGYNGTIFAYGQTGSGKTFTMMGPSESDNFSHNLRGVIPRSFEYLFSLIDREKEKAGAGKSFLCKCSFIEIYNEQIYDLLDSASAGLYLREHIKKGVFVVGAVEQVVTSAAEAYQVLSGGWRNRRVASTSMNRESSRSHAVFTITIESMEKSNEIVNIRTSLLNLVDLAGSERQKDTHAEGMRLKEAGNINRSLSCLGQVITALVDVGNGKQRHVCYRDSKLTFLLRDSLGGNAKTAIIANVHPGSRCFGETLSTLNFAQRAKLIKNKAVVNEDTQGNVSQLQAEVKRLKEQLAELASGQTPPESFLTRDKKKTNYMEYFQEAMLFFKKSEQEKKSLIEKVTQLEDLTLKKEKFIQSNKMIVKFREDQIIRLEKLHKESRGGFLPEEQDRLLSELRNEIQTLREQIEHHPRVAKYAMENHSLREENRRLRLLEPVKRAQEMDAQTIAKLEKAFSEISGMEKSDKNQQGFSPKAQKEPCLFANTEKLKAQLLQIQTELNNSKQEYEEFKELTRKRQLELESELQSLQKANLNLENLLEATKACKRQEVSQLNKIHAETLKIITTPTKAYQLHSRPVPKLSPEMGSFGSLYTQNSSILDNDILNEPVPPEMNEQAFEAISEELRTVQEQMSALQAKLDEEEHKNLKLQQHVDKLEHHSTQMQELFSSERIDWTKQQEELLSQLNVLEKQLQETQTKNDFLKSEVHDLRVVLHSADKELSSVKLEYSSFKTNQEKEFNKLSERHMHVQLQLDNLRLENEKLLESKACLQDSYDNLQEIMKFEIDQLSRNLQNFKKENETLKSDLNNLMELLEAEKERNNKLSLQFEEDKENSSKEILKVLEAVRQEKQKETAKCEQQMAKVQKLEESLLATEKVISSLEKSRDSDKKVVADLMNQIQELRTSVCEKTETIDTLKQELKDINCKYNSALVDREESRVLIKKQEVDILDLKETLRLRILSEDIERDMLCEDLAHATEQLNMLTEASKKHSGLLQSAQEELTKKEALIQELQHKLNQKKEEVEQKKNEYNFKMRQLEHVMDSAAEDPQSPKTPPHFQTHLAKLLETQEQEIEDGRASKTSLEHLVTKLNEDREVKNAEILRMKEQLREMENLRLESQQLIEKNWLLQGQLDDIKRQKENSDQNHPDNQQLKNEQEESIKERLAKSKIVEEMLKMKADLEEVQSALYNKEMECLRMTDEVERTQTLESKAFQEKEQLRSKLEEMYEERERTSQEMEMLRKQVECLAEENGKLVGHQNLHQKIQYVVRLKKENVRLAEETEKLRAENVFLKEKKRSES

What follows are molecules tested against T1, Ubiquitin Specific Peptidase 15 (USP15) (human (endogenous in LN-229, LN-428, LN-18)) (assay: co-IP; IP of endogenous USP15 from LN-229 (HECTD1 also from LN-428 and LN-18) protein extracts, Western blot with antibodies against the partner; control IP with rabbit IgG).

binding, binds:
Oxysterol Binding Protein-Like 3 (OSBPL3) (from UniProt Q9H4L5 1-887), HECT Domain Containing E3 Ubiquitin Protein Ligase 1 (HECTD1) (from UniProt Q9ULT8 1-2610), B1
